# According to the supplement of paper PMC9226226:
# “And” between values parts separate entries of the source, which are not always exact repeats. Equal entries are not always repeated. Some of the results follow. Several reference drugs read as weak here; read low effects with care.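 Human mesenchymal stem cells lacking the Werner syndrome gene, which age prematurely, were used. Automated live-cell imaging tracked growth across three biological repeats; the twenty drugs raising growth most relative to vehicle advanced, without a stated fixed cutoff.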
# System: Werner syndrome hMSCs (WRN-/-)
# Assay: relative cell density (fold change vs vehicle control); higher = more proliferation (geroprotective)
# Settings: concentration (umol/L): 1, 6 days
SMILES,relative cell density (vehicle: DMSO),relative cell density (vehicle: Water)
FC(F)(F)c1ccc(CNc2ccc(Cc3c[nH]c4ncc(Cl)cc34)cn2)cn1,0.87,–
CN(C)CCC=C1c2ccccc2CCc2ccccc21,1.3,–
Cc1ccnc2c1NC(=O)c1cccnc1N2C1CC1,1.1,–
C#C[C@]1(O)CC[C@H]2[C@@H]3CCc4cc(OC5CCCC5)ccc4[C@H]3CC[C@@]21C,1.03,–
Cc1[nH]c(=O)c(C#N)cc1-c1ccncc1,0.991,–
Cn1c(=O)c2[nH]cnc2n(C)c1=O,1.11,–
CS(=O)(=O)c1ccc(C2=C(c3ccccc3)C(=O)OC2)cc1,1.62,–
NC(=O)c1ncn([C@@H]2O[C@H](CO)[C@@H](O)[C@H]2O)n1,1.12,–
CCOC(=O)[C@H](CCc1ccccc1)N[C@@H](C)C(=O)N1[C@H](C(=O)O)C[C@@H]2CCC[C@@H]21,1.01,–
NS(=O)(=O)c1cc2c(cc1Cl)N=CNS2(=O)=O,1.17,–
CN[C@H](CC(C)C)C(=O)N[C@H]1C(=O)N[C@@H](CC(N)=O)C(=O)N[C@H]2C(=O)N[C@H]3C(=O)N[C@H](C(=O)N[C@H](C(=O)O)c4cc(O)cc(O)c4-c4cc3ccc4O)[C@H](O)c3ccc(c(Cl)c3)Oc3cc2cc(c3O[C@@H]2O[C@H](CO)[C@@H](O)[C@H](O)[C@H]2O[C@H]2C[C@](C)(N)[C@H](O)[C@H](C)O2)Oc2ccc(cc2Cl)[C@H]1O,–,0.973
COc1ccc(-c2nc3cc(C4=NNC(=O)CC4C)ccc3[nH]2)cc1 (stereo unspecified),1.09,–
Cc1cc(C2CCCCC2)n(O)c(=O)c1,0.429 and 0.307,–
CC1=C(C(=O)OC(C)C)C(c2cccc([N+](=O)[O-])c2)C(C(=O)OC2CN(C(c3ccccc3)c3ccccc3)C2)=C(N)N1 (stereo unspecified),1.1,–
COc1cc(C(=O)NS(=O)(=O)c2ccccc2C)ccc1Cc1cn(C)c2ccc(NC(=O)OC3CCCC3)cc12,1.04,–
CCOc1cc([C@@H](CS(C)(=O)=O)N2C(=O)c3cccc(NC(C)=O)c3C2=O)ccc1OC,0.797,–
O=C(O)c1cc(=O)c2ccccc2o1,1.17,–
N=C(N)NC(=O)c1nc(Cl)c(N)nc1N,0.942,0.933
CN(C)C(=O)COC(=O)Cc1ccc(OC(=O)c2ccc(NC(=N)N)cc2)cc1,0.83,–
Nc1ccccc1NC(=O)c1ccc(CNC(=O)OCc2cccnc2)cc1,0.767,–
NC(=O)Cc1cccc(C(=O)c2ccccc2)c1N,1.03,–
CCCCC1=NC2(CCCC2)C(=O)N1Cc1ccc(-c2ccccc2-c2nnn[nH]2)cc1,–,0.898
N[C@@H]1CCCCN(c2c(F)cc3c(=O)c(C(=O)O)cn(C4CC4)c3c2Cl)C1,–,0.954

SMILES,relative cell density (vehicle: DMSO),relative cell density (vehicle: Water)
CC[C@H]1OC(=O)[C@H](C)[C@@H](O[C@H]2C[C@@](C)(OC)[C@@H](O)[C@H](C)O2)[C@H](C)[C@@H](O[C@@H]2O[C@H](C)C[C@H](N(C)C)[C@H]2O)[C@](C)(OC)C[C@@H](C)C(=O)[C@H](C)[C@@H](O)[C@]1(C)O,1.05,–
CCCCOC(=O)c1ccc(N)cc1,1.14,–
O=C1Cc2cc(CCN3CCN(c4nsc5ccccc45)CC3)c(Cl)cc2N1,1.41,–
CC(C)/N=c1\cc2n(-c3ccc(Cl)cc3)c3ccccc3nc-2cc1Nc1ccc(Cl)cc1,0.949,–
CCN[C@H]1C[C@H](C)S(=O)(=O)c2sc(S(N)(=O)=O)cc21,–,0.729
Nc1ncn([C@H]2C[C@H](O)[C@@H](CO)O2)c(=O)n1,1.16,–
C[C@]12CC[C@@H]3c4ccc(O)cc4CC[C@H]3[C@@H]1CC[C@@H]2OC(=O)CCC1CCCC1,1.22,–
CN(C)c1ccc(O)c2c1C[C@H]1C[C@H]3[C@H](N(C)C)C(=O)C(C(N)=O)=C(O)[C@@]3(O)C(=O)C1=C2O,–,1.64
O=C([O-])CC(O)(CC(=O)[O-])C(=O)[O-].O=C([O-])CC(O)(CC(=O)[O-])C(=O)[O-].[Bi+3].[K+].[K+].[K+].[K+].[K+],–,0.579
C[C@@H]1[C@H](O)[C@@H](C)/C=C/C=C/C=C/C=C/C=C/C=C/C=C/[C@H](O[C@@H]2O[C@H](C)[C@@H](O)[C@H](N)[C@@H]2O)C[C@@H]2O[C@](O)(C[C@@H](O)C[C@@H](O)[C@H](O)CC[C@@H](O)C[C@@H](O)CC(=O)O[C@H]1C)C[C@H](O)[C@H]2C(=O)O,0.964,–
CCN(CCO)CCCOc1ccc2c(Nc3cc(CC(=O)Nc4cccc(F)c4)[nH]n3)ncnc2c1,0.866,–
C=CC(=O)N1CCC(Oc2cc3c(Nc4ccc(Cl)c(Cl)c4F)ncnc3cc2OC)CC1,1.11,–
CN1CCN(C2=Nc3cc(Cl)ccc3Nc3ccccc32)CC1,1.48,–
NC12CC3CC(CC(C3)C1)C2,1.24,–
Cn1ncc(Cl)c1-c1cc(C(=O)N[C@H](CN)Cc2cccc(F)c2)sc1Cl,1.17,–
CO[C@H]1O[C@@H]2O[C@@]3(C)CC[C@H]4[C@H](C)CC[C@@H]([C@H]1C)[C@@]24OO3,0.704,–
Clc1ccc(COC(Cn2ccnc2)c2ccc(Cl)cc2Cl)c(Cl)c1 (stereo unspecified),1.08 and 1.04,–
Cc1cc(=O)n(-c2ccccc2)n1C,0.355,–
CS(=O)(=O)n1cc2c(n1)CN([C@H]1CO[C@H](c3cc(F)ccc3F)[C@@H](N)C1)C2,0.965,–
CCCN(CCc1cccs1)[C@H]1CCc2c(O)cccc2C1,1.02,–
CC1CCc2c(N3CCC(O)CC3)c(F)cc3c(=O)c(C(=O)O)cn1c23 (stereo unspecified),1.09,–
Cc1ccc(-c2ncc(Cl)cc2-c2ccc(S(C)(=O)=O)cc2)cn1,1.32,–

# Taken from above:
# Under relative cell density (vehicle: DMSO), O=C1Cc2cc(CCN3CCN(c4nsc5ccccc45)CC3)c(Cl)cc2N1 has the entry 1.41
# Under relative cell density (vehicle: Water), CCN[C@H]1C[C@H](C)S(=O)(=O)c2sc(S(N)(=O)=O)cc21 has the entry 0.729
